The target in assay [1] is T1, Ca2+/calmodulin-dependent kinase IV (mouse (endogenous in E19 embryo brain of 3xTg AD mice)) (UniProt P08414).
T1 sequence: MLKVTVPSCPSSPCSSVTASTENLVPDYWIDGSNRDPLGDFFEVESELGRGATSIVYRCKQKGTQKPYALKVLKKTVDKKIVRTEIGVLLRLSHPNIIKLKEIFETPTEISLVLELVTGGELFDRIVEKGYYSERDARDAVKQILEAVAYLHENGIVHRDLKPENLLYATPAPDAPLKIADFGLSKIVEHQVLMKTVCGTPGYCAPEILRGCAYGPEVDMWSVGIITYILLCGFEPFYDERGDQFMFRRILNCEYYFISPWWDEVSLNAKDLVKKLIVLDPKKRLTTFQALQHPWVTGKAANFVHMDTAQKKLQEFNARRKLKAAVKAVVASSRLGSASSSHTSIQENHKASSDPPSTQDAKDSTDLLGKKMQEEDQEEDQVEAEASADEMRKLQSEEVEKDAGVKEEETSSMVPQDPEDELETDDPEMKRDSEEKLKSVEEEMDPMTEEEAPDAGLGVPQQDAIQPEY
The experiment in a line: co-IP; E19 embryo extracts of control and GEE-exposed 3xTg AD mice; 600 ug total proteins with 10 ug anti-CaMKIV (Santa Cruz) or anti-IGF1R (Proteintech) overnight at 4 °C, protein A + G agarose; western blotting with anti-CaMKIV or IGF1R.

Amino acid sequences for entries named in this document (tags omitted). Residues count along the entry.
UniProt P45481: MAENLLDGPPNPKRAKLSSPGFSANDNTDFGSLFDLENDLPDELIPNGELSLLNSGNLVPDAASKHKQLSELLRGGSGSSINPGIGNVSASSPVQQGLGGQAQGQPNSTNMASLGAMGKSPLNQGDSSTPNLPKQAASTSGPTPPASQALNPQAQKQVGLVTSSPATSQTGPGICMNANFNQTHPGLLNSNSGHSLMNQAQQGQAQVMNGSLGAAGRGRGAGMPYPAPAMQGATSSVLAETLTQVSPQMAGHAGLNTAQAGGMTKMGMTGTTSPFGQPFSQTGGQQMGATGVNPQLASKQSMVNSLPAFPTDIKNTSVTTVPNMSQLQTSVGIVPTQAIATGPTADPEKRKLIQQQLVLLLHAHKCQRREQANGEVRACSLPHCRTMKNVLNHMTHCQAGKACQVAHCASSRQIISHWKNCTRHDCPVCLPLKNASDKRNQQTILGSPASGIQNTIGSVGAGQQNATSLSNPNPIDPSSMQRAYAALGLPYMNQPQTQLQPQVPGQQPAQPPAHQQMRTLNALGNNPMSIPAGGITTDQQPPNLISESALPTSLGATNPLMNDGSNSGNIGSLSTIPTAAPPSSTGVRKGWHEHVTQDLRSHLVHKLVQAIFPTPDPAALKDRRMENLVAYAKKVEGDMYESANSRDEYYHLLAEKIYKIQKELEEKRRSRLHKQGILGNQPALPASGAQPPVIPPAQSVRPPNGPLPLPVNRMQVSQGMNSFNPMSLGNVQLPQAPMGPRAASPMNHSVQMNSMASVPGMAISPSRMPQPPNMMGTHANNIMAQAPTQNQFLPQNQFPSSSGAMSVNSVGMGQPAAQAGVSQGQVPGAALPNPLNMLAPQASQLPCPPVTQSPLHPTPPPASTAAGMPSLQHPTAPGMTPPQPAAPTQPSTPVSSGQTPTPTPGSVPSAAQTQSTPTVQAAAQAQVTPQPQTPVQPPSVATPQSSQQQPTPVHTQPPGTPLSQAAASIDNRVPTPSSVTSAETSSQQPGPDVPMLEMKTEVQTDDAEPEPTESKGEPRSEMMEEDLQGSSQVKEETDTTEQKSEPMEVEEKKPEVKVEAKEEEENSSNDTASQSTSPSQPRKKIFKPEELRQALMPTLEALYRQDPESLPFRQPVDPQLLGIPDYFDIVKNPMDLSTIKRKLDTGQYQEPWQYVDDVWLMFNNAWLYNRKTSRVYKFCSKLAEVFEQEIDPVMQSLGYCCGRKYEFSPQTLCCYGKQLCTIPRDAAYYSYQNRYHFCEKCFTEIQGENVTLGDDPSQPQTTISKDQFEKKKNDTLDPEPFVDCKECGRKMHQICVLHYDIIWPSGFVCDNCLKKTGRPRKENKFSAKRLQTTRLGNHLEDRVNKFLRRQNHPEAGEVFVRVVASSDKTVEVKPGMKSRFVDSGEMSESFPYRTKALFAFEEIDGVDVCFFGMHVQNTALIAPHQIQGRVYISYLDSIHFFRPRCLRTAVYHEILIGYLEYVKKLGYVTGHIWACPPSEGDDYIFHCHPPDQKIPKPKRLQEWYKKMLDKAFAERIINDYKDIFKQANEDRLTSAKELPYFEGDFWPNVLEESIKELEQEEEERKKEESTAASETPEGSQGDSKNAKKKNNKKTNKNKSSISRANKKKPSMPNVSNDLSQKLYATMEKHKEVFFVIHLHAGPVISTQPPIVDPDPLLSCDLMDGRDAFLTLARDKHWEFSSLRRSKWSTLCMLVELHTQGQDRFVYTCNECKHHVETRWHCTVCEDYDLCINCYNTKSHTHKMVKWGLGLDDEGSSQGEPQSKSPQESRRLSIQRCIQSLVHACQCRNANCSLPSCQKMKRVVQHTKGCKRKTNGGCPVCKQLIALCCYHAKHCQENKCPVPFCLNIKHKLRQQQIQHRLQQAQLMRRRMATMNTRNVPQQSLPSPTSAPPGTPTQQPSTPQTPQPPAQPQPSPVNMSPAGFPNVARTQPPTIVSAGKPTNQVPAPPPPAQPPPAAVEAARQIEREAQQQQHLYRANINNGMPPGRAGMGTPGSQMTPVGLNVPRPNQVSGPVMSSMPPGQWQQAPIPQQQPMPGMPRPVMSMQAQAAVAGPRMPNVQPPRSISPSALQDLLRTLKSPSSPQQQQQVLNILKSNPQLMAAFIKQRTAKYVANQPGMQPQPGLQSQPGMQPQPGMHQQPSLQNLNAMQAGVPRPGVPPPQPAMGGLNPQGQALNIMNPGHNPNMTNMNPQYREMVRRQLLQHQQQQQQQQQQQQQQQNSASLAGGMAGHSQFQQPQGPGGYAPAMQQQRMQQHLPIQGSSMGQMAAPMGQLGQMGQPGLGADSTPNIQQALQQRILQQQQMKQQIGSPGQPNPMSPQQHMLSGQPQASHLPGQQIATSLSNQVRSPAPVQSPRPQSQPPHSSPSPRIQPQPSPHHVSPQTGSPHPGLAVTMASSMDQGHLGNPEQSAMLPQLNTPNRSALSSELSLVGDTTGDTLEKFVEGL
UniProt Q60751, residues 31-1373: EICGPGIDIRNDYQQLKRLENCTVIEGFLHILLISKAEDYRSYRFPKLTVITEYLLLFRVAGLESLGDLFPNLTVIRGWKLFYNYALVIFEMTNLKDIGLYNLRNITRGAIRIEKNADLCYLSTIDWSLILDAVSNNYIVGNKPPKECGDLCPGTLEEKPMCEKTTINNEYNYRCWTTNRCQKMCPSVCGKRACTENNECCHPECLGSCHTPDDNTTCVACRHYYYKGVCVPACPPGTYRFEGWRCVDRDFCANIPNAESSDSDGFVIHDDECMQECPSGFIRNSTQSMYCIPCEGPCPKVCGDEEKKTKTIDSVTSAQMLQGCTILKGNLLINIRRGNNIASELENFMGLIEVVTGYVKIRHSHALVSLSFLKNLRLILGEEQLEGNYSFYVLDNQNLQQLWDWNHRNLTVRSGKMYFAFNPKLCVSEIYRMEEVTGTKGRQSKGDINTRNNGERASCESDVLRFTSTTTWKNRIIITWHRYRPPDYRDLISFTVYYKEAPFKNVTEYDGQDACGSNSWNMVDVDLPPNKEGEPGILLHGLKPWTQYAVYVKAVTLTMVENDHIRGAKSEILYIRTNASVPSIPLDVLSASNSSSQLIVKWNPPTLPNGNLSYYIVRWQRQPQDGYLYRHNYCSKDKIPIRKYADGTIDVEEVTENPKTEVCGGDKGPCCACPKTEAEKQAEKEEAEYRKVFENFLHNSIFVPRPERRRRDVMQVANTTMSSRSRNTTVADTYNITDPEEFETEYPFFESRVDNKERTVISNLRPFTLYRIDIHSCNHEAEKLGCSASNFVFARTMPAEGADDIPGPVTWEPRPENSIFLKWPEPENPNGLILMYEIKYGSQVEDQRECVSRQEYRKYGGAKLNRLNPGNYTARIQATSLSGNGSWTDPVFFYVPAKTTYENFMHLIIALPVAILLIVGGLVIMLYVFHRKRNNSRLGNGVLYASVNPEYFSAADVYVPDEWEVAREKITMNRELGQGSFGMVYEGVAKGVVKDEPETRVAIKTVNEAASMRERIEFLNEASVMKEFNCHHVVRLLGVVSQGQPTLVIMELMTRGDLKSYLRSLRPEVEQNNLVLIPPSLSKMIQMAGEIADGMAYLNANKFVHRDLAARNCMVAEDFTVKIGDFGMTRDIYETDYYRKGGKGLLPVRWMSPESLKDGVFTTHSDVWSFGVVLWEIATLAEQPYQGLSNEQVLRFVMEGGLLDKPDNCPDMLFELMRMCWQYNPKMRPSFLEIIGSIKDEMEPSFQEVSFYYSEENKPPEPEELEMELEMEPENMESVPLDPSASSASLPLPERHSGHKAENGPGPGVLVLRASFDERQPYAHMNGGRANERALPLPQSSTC

In assay [2] the target is CREB-binding protein (mouse (endogenous in E19 embryo brain of 3xTg AD mice)) (UniProt P45481). The experiment in a line: co-IP; E19 embryo brain (hippocampi) lysate of control and GEE-exposed 3xTg AD mice; about 600 ug total protein with 10 ug anti-CBP or anti-CaMKIV overnight at 4 °C, protein A + G agarose; western blotting.

These are yes or no findings as the source states them, for the method shown. Binding seen in cells or lysates may run through a third protein. Some results given as binding are weak or reduced against the parent protein; the word gives no strength. For some assays here: Tags and fused reporters may be left off the sequences shown.

Turning to “insulin-like growth factor 1 receptor (from UniProt Q60751 31-1373)”, the binding result in assay [1] is on record as “binds”.

B1: Ca2+/calmodulin-dependent kinase IV (enzyme, UniProt P08414 1-469)
chain: T1 sequence
Regarding B1, the binding entry in assay [2] is “binds”.

(Values after article PMC6399936.)
